Source: PubChem BioAssay AID1671190 (National Center for Advancing Translational Sciences (NCATS), 2021)
The campaign covered roughly 580,000 compounds. About 6,100 (1.1%) were called active. Inconclusive means that the source gave no clear call. Such entries were picked first, then a sample of the others. The call rests on the fitted dose curve; in most records, active means well fitted inhibition curve with a large enough effect; inconclusive means small, poorly fitted or top-dose-only effect, or another doubt; inactive means no such curve, though single readings can be large or run the other way. A potency beside an inconclusive call is a rough fit, not a confirmed value.

Sequences of proteins named here, by UniProt entry; tags and fusion partners are left off. A change or cut given only in a name is not applied to a line headed by its entry.
UniProt P18054: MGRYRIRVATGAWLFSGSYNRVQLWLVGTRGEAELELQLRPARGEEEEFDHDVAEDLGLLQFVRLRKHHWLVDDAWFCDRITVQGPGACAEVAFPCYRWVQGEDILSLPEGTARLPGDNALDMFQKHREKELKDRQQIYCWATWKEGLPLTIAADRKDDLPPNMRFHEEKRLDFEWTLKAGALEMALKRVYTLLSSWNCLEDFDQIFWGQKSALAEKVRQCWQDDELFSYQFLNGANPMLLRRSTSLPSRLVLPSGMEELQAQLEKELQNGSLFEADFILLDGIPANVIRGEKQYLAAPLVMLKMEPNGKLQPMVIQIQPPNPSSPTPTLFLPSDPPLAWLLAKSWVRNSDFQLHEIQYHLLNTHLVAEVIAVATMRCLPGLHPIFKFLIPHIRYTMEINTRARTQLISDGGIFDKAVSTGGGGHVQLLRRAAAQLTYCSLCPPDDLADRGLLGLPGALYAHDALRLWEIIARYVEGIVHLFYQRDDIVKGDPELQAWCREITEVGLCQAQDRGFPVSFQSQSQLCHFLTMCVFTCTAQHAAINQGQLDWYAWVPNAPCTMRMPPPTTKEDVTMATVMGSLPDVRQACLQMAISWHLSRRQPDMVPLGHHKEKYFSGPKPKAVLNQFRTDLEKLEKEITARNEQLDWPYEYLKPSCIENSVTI

Biological target: Polyunsaturated fatty acid lipoxygenase ALOX12 (Homo sapiens) (UniProt P18054)
Test: Primary qHTS assay for inhibitors of human arachidonate 12S-lipoxygenase (ALOX12): Round 2
Settings: purified 12hLO, xylenol orange hydroperoxide absorbance; series mostly up to 108 µM
Procedure, shortened: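 Hydroperoxide product was detected by ferrous iron/xylenol orange as the 573 to 405 nm absorbance ratio. Arachidonic acid at 40 uM (final) was turned over for 30 min at room temperature by 150 nM human 12hLO, pH 7.0 Hepes buffer, after 15 min compound preincubation.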
Potency means the concentration at half of the fitted maximal effect.

Q: With `COc1ccc(NC(=O)c2ccc(C3Nc4ccccc4S(=O)(=O)N3)cc2)cc1OC` (stereo not drawn) as the compound, how does the Potency read?
A: inconclusive: 50.1 µM [inhibitor, partial curve, poor fit]

Q: Which Potency does the source give for `Cc1ccc(NCc2ccc(O)c3ncccc23)cc1C` here?
A: inconclusive: 3.98 µM [inhibitor, full curve]

Q: `COc1ccccc1-c1ccc(CN2CCCC(c3nc4ccc(F)cc4c(=O)[nH]3)C2)cc1` (stereo not drawn) was tested. Which Potency did it give?
A: inconclusive: 35.5 µM [inhibitor, partial curve]

Q: For `O=C(Nc1cc(=O)[nH]c2nc(C(F)(F)F)nn12)c1ccccc1Cl`, which Potency is on record?
A: inconclusive: 8.91 µM [inhibitor, full curve]

Q: For `CCOC(=O)c1cc(CC)sc1NC(=O)COC`, which Potency is on record?
A: inactive

Q: With `Cc1csc2nc(COc3ccc(-c4ccccc4)cc3Cl)cc(=O)n12` as the compound, how does the Potency read?
A: inactive

Q: Which Potency does the source give for `Cc1ccccc1NC(=O)C(C)OC(=O)CCC(=O)c1ccccc1` (stereo not drawn) here?
A: inconclusive: 50.1 µM [inhibitor, partial curve, poor fit]

Q: `CC(C)C[C@H]1CNC(=O)C(=O)N1C[C@@H]1CCCN1C[C@H](Cc1ccc(O)cc1)N1C[C@H](Cc2ccccc2)N(CC2CCCCC2)C(=O)C1=O` was tested. Which Potency did it give?
A: inconclusive: 89.1 µM [inhibitor, single point]

Q: For `COc1ccc(NC(=S)N/N=C2\CC(C)(C)Oc3ccc(O)cc32)cc1`, which Potency is on record?
A: active: 31.6 µM

Q: For `COc1ccc(-c2cc(C(=O)OCC(=O)NC3CC3)c3ccccc3n2)cc1OC`, which Potency is on record?
A: inconclusive: 39.8 µM [inhibitor, partial curve, poor fit]

Q: How did the Potency turn out when `CC(=O)c1cccc(OCc2coc(-c3cccc(Cl)c3)n2)c1` was run?
A: inconclusive: 63.1 µM [inhibitor, partial curve, poor fit]

Q: `CCOC(=O)Cc1csc(NC(=O)CCc2ccc(S(=O)(=O)N3CCOCC3)cc2)n1` was tested. Which Potency did it give?
A: inactive

Q: With `CCCC1CC(=O)OC1(C)C(=O)CSc1n[nH]c(-c2ccccc2)n1` (stereo not drawn) as the compound, how does the Potency read?
A: inconclusive: 11.2 µM [inhibitor, partial curve, poor fit]

Q: With `COc1ccc(Cl)cc1-c1n[nH]c(=S)n1C1CCCCC1` as the compound, how does the Potency read?
A: active: 39.8 µM

Q: Which Potency does the source give for `O=C(CSc1ncc(-c2ccc(F)cc2)o1)Nc1ccc(O)cc1` here?
A: inactive

Q: How did the Potency turn out when `COc1ccc2c(c1)sc(N)[n+]2Cc1cc(C)cc2cccnc12` was run?
A: inactive

Q: With `CCOC(=O)c1ccc(S(=O)(=O)N2CCC(C(=O)N3CCN(c4ccccc4OC)CC3)CC2)cc1` as the compound, how does the Potency read?
A: inactive

Q: With `CCC1Oc2ccc(NC(=O)c3ccccc3)cc2CN(Cc2cc(F)cc(F)c2)C1=O` (stereo not drawn) as the compound, how does the Potency read?
A: inconclusive: 11.2 µM [inhibitor, partial curve, poor fit]

Q: `O=C(c1cccc([N+](=O)[O-])c1)N1CC2C3C=CC(C3)C2C1` (stereo not drawn) was tested. Which Potency did it give?
A: inactive

Q: For `COc1ccc(OCCNC(=O)c2ccc3c(c2)NC(=O)CS3)cc1`, which Potency is on record?
A: inconclusive: 28.2 µM [inhibitor, single point]

Q: With `O=C(Nc1nc(-c2cc3ccccc3oc2=O)cs1)c1ccccc1` as the compound, how does the Potency read?
A: inactive

Q: `CCN(Cc1nc2ccccc2c(=O)[nH]1)Cc1nc2ccsc2c(=O)[nH]1` was tested. Which Potency did it give?
A: inactive

Q: For `CCOC(=O)N1CCN(Cc2cn[nH]c2-c2cc3ccccc3o2)CC1`, which Potency is on record?
A: inconclusive: 100 µM [inhibitor, single point]

Q: Which Potency does the source give for `Cc1ccc(S(C)(=O)=O)cc1C(=O)Nc1ccccc1N1CCOCC1` here?
A: inconclusive: 39.8 µM [inhibitor, single point]

Q: `CNC(=O)[C@@H](c1ccc(OC)cc1)N1CCC[C@H]1C(=O)N1CCCC1` was tested. Which Potency did it give?
A: inconclusive: 22.4 µM [inhibitor, full curve, poor fit]

Q: With `COc1ccc(C(=O)COC(=O)CCn2c(C)csc2=O)c(OC)c1` as the compound, how does the Potency read?
A: inactive

Q: `CCCCN(C=O)c1c(CC)nc2ccc(C(=O)N3CCN(C(=O)c4ccco4)CC3)cn12` was tested. Which Potency did it give?
A: inactive

Q: How did the Potency turn out when `CCN(C[C@H]1N[C@@](C)(C(=O)OC)[C@H]2C(=O)N(Cc3ccccc3)C(=O)[C@@H]12)C(=O)c1ccc(F)cc1` was run?
A: inconclusive: 35.5 µM [inhibitor, partial curve]

Q: For `Cc1ccc(CNC(=O)c2nc(S(=O)(=O)Cc3ccccc3F)ncc2Cl)cc1`, which Potency is on record?
A: inactive

Q: For `COc1cc(C2/C(=C(\O)c3ccc4c(c3)OCCO4)C(=O)C(=O)N2Cc2ccco2)ccc1O` (stereo not drawn), which Potency is on record?
A: inconclusive: 22.4 µM [inhibitor, partial curve, poor fit]

Q: Which Potency does the source give for `Cc1ccccc1CN1C2=NCCN2c2ccccc21` here?
A: inconclusive: 89.1 µM [inhibitor, single point]

Q: How did the Potency turn out when `CCCc1nnc(NC(=O)CSc2ncn[nH]2)s1` was run?
A: inconclusive: 50.1 µM [inhibitor, single point]

Q: With `O=C(/C=C/c1c[nH]c2ccccc12)c1cccc2ccccc12` as the compound, how does the Potency read?
A: inconclusive: 50.1 µM [inhibitor, partial curve, poor fit]

Q: Which Potency does the source give for `COc1ccc(N(CC(=O)N2CCN(Cc3ccccc3)CC2)S(C)(=O)=O)c(OC)c1` here?
A: inactive

Q: Which Potency does the source give for `CCCOc1ccccc1C(=O)N(Cc1cccc(OC)c1)C1CCS(=O)(=O)C1` (stereo not drawn) here?
A: inactive

Q: For `N#Cc1cn(CC(=O)Nc2cc(F)cc(F)c2)c2ccccc12`, which Potency is on record?
A: inconclusive: 56.2 µM [inhibitor, full curve, poor fit]

Q: Which Potency does the source give for `COc1ccc(CNC(=O)c2cccc3c(-c4cnn(C)c4)coc23)cc1OC` here?
A: inconclusive: 44.7 µM [inhibitor, partial curve, poor fit]

Q: Which Potency does the source give for `O=C1CC2(C(=O)Nc3cc(F)ccc32)c2sc(C(=O)O)c(-c3ccccc3)c2N1` (stereo not drawn) here?
A: inconclusive: 79.4 µM [inhibitor, single point]

Q: With `COc1cccc(NC(=O)CN(C)Cc2cc(=O)oc3c(C)c(O)ccc23)c1` as the compound, how does the Potency read?
A: inconclusive: 79.4 µM [inhibitor, single point]

Q: `Cc1cccc(C)c1NC(=O)CNC(=O)CCCN1C(=O)c2cccc3cccc(c23)C1=O` was tested. Which Potency did it give?
A: inactive

Q: With `CS(=O)(=O)Nc1cccc(C(=O)CC2(O)C(=O)Nc3ccc(Br)cc32)c1` (stereo not drawn) as the compound, how does the Potency read?
A: inactive

Q: `COC(=O)c1ccc2nc(-c3ccccc3)c(Cc3ccc(OC)cc3C)n2c1` was tested. Which Potency did it give?
A: inconclusive: 10 µM [inhibitor, partial curve, poor fit]

Q: With `COc1ccc(Cl)cc1C(Nc1cccnc1)c1ccc2cccnc2c1O` (stereo not drawn) as the compound, how does the Potency read?
A: inconclusive: 14.1 µM [inhibitor, full curve]
